The supplement of paper PMC6414424
Structures can show the parent of a compound that is named as a salt. ± gives the standard deviation of the averaged measurements. This is one part of the list.

What follows are compounds tested on APPdp1-6 iPSC-derived neurons (assay: pThr231Tau/total Tau ratio Z-score vs DMSO vehicle wells; higher = more pThr231Tau relative to total Tau). Conditions: 5 µM; treatment time 5 days.

| SMILES | pThr231Tau/total Tau ratio Z-score |
| --- | --- |
| CCOC(=O)C(C)(C)Oc1ccc(Cl)cc1 [Prestw-1383] | -0.322 ± 0.2 |
| CC(=O)N(O)CCCCCNC(=O)CCC(=O)N(O)CCCCCNC(=O)CCC(=O)N(O)CCCCCN [Prestw-725] | 2.51 ± 3.6 |
| CCN[C@H]1C[C@H](C)S(=O)(=O)c2sc(S(N)(=O)=O)cc21 [Prestw-1116] | -0.311 ± 0.41 |
| O=C1Cc2cc(CCN3CCN(c4nsc5ccccc45)CC3)c(Cl)cc2N1 [Prestw-1188] | 0.0759 ± 2 |
| O=c1cc(-c2ccc(O)c(O)c2)oc2cc(O)cc(O)c12 [Prestw-870] | -0.332 ± 0.71 |
| CC(C)(C(=O)c1cccnc1)c1cccnc1 [Prestw-904] | -2.07 ± 2 |
| Cc1cc(=O)n(-c2ccccc2)n1C [Prestw-29] | 0.251 ± 0.14 |
| Clc1ccc(COC(Cn2ccnc2)c2ccc(Cl)cc2Cl)c(Cl)c1 (stereo unspecified) [Prestw-67] | 0.1 ± 0.83 |
| NC12CC3CC(CC(C3)C1)C2 [Prestw-407] | 0.026 ± 1.6 |
| Cc1ccc(-c2ncc(Cl)cc2-c2ccc(S(C)(=O)=O)cc2)cn1 [Prestw-1408] | -0.876 ± 0.48 |
| CC1CCc2c(N3CCC(O)CC3)c(F)cc3c(=O)c(C(=O)O)cn1c23 (stereo unspecified) [Prestw-1120] | -0.191 ± 0.53 |
| C[C@@H]1NC(=O)NC1=O [Prestw-860] | 0.255 ± 0.45 |
| CN1CCN(C2=Nc3cc(Cl)ccc3Nc3ccccc32)CC1 [Prestw-350] | -1.72 ± 0.85 |
| COc1cc(C(=O)NS(=O)(=O)c2ccccc2C)ccc1Cc1cn(C)c2ccc(NC(=O)OC3CCCC3)cc12 [Prestw-1364] | -0.175 ± 1.1 |
| Cc1cc(C2CCCCC2)n(O)c(=O)c1 [Prestw-541] | -2.16 ± 0.61 |
| NS(=O)(=O)c1cc(C(=O)O)c(NCc2ccco2)cc1Cl [Prestw-341] | -0.00641 ± 0.17 |
| O=C(O)c1cc(=O)c2ccccc2o1 [CHROMOCARB    Therap cat:  vascular protectant] | 1.33 ± 2.7 |
| COc1cc([S+](C)[O-])ccc1-c1nc2ncccc2[nH]1 (stereo unspecified) [Prestw-641] | -0.197 ± 0.78 |
| CCOC(=O)[C@H](CCc1ccccc1)N[C@@H](C)C(=O)N1[C@H](C(=O)O)C[C@@H]2CCC[C@@H]21 [Prestw-1107] | -1.01 ± 1.9 |
| CCOc1ccc2c(c1)C(C)=CC(C)(C)N2 [Prestw-765] | -0.857 ± 1.4 |
| NC(=O)c1ncn([C@@H]2O[C@H](CO)[C@@H](O)[C@H]2O)n1 [Prestw-993] | 0.555 |
| CC(C)COCC(CN(Cc1ccccc1)c1ccccc1)N1CCCC1 (stereo unspecified) [Prestw-368] | -2.95 ± 1.2 |
| CN[C@H](CC(C)C)C(=O)N[C@H]1C(=O)N[C@@H](CC(N)=O)C(=O)N[C@H]2C(=O)N[C@H]3C(=O)N[C@H](C(=O)N[C@H](C(=O)O)c4cc(O)cc(O)c4-c4cc3ccc4O)[C@H](O)c3ccc(c(Cl)c3)Oc3cc2cc(c3O[C@@H]2O[C@H](CO)[C@@H](O)[C@H](O)[C@H]2O[C@H]2C[C@](C)(N)[C@H](O)[C@H](C)O2)Oc2ccc(cc2Cl)[C@H]1O | 1 ± 1.8 |
| CN[C@H](CC(C)C)C(=O)N[C@H]1C(=O)N[C@@H](CC(N)=O)C(=O)N[C@H]2C(=O)N[C@H]3C(=O)N[C@H](C(=O)N[C@H](C(=O)O)c4cc(O)cc(O)c4-c4cc3ccc4O)[C@H](O)c3ccc(c(Cl)c3)Oc3cc2cc(c3O[C@@H]2O[C@H](CO)[C@@H](O)[C@H](O)[C@H]2O[C@H]2C[C@](C)(N)[C@H](O)[C@H](C)O2)Oc2ccc(cc2Cl)[C@H]1O [Prestw-497] | -0.485 ± 0.56 |
| CNS(=O)(=O)Cc1ccc2[nH]cc(CCN(C)C)c2c1 [Prestw-1346] | -0.877 ± 1.3 |
| CC[C@H]1OC(=O)[C@H](C)[C@@H](O[C@H]2C[C@@](C)(OC)[C@@H](O)[C@H](C)O2)[C@H](C)[C@@H](O[C@@H]2O[C@H](C)C[C@H](N(C)C)[C@H]2O)[C@](C)(OC)C[C@@H](C)C(=O)[C@H](C)[C@@H](O)[C@]1(C)O [Prestw-1378] | -0.0801 ± 0.82 |

Pulled one by one from the entries so far:

| SMILES | pThr231Tau/total Tau ratio Z-score |
| --- | --- |
| CCOC(=O)C(C)(C)Oc1ccc(Cl)cc1 [Prestw-1383] | -0.322 ± 0.2 |
| NS(=O)(=O)c1cc(C(=O)O)c(NCc2ccco2)cc1Cl [Prestw-341] | -0.00641 ± 0.17 |
| COc1cc([S+](C)[O-])ccc1-c1nc2ncccc2[nH]1 (stereo unspecified) [Prestw-641] | -0.197 ± 0.78 |

The list continues:

| SMILES | pThr231Tau/total Tau ratio Z-score |
| --- | --- |
| CCOc1ccccc1OCC1CNCCO1 (stereo unspecified) [Prestw-1361] | -0.844 ± 2 |
| O=C(Nc1ccc(C(=O)O)c(O)c1)c1ccccc1 [BENZOYLPAS, antibacterial, tuberculostatic] | 0.816 ± 1.1 |
| CCCCOC(=O)c1ccc(N)cc1 [Prestw-761] | 0.187 ± 0.083 |
| CN(C)/N=N/c1nc[nH]c1C(N)=O [Prestw-574] | 2.11 ± 3.8 |
| O=C1NCN(c2ccccc2)C12CCN(CCCC(c1ccc(F)cc1)c1ccc(F)cc1)CC2 [Prestw-906] | -2.87 ± 0.3 |
| CC(C)(C)C(=O)OCOC(=O)[C@@H]1N2C(=O)[C@@H](NC(=O)[C@H](N)c3ccccc3)[C@H]2SC1(C)C [Prestw-1009] | -0.38 ± 0.056 |
| CCCCC(CC)CN1CN(CC(CC)CCCC)CC(C)(N)C1 (stereo unspecified) [Prestw-551] | 0.633 ± 2 |
| COc1cc2c(cc1OC)C(=O)C(CC1CCN(Cc3ccccc3)CC1)C2 (stereo unspecified) | 0.17 ± 0.84 |
| NC(N)=NCc1cccc(I)c1 [Prestw-490] | 0.221 ± 0.2 |
| CC1CCC(C(C)C)C(O)C1 (stereo unspecified) [Menthol] | 0.796 ± 1.8 |
| CNCC[C@H](Oc1cccc2ccccc12)c1cccs1 [DULOXETINE HYDROCHLORIDE, antidepressant] | -1.87 ± 0.76 |
| O=C(CCCN1CCC(O)(c2ccc(Br)cc2)CC1)c1ccc(F)cc1 [Prestw-509] | -0.285 ± 0.42 |
| CC(=O)c1ccc2c(c1)N(CCCN1CCC(CCO)CC1)c1ccccc1S2 [Prestw-1048] | -1.94 ± 1 |
| COc1cc(Cc2cnc(N)nc2N)cc(OC)c1OC [Prestw-208] | 0.645 ± 1.5 |
| COc1cc(-c2ccc(N=Nc3ccc4c(S(=O)(=O)O)cc(S(=O)(=O)O)c(N)c4c3O)c(OC)c2)ccc1N=Nc1ccc2c(S(=O)(=O)O)cc(S(=O)(=O)O)c(N)c2c1O [Prestw-425] | -0.421 ± 0.08 |
| CCN(CC)CCOC(=O)C(c1ccccc1)C1CCCCC1 (stereo unspecified) [Prestw-789] | -0.591 ± 0.9 |
| COCC1=C(C(=O)OC(C)OC(=O)OC(C)C)N2C(=O)[C@@H](NC(=O)/C(=N\OC)c3csc(N)n3)[C@H]2SC1 (stereo partly specified) [CEFPODOXIME PROXETIL, antibacterial] | 1.35 ± 1.7 |
| O=C(Nc1ccccc1)c1ccccc1O | 1.07 ± 0.49 |
| CO/N=C(\C(=O)N[C@@H]1C(=O)N2C(C(=O)O)=C(CSc3nc(=O)c(=O)[nH]n3C)CS[C@H]12)c1csc(N)n1 [CEFTRIAXONE SODIUM TRIHYDRATE, antibacterial] | 1.45 ± 0.74 |
| Cn1c(=O)c2[nH]cnc2n(C)c1=O [Prestw-820] | 0.192 ± 0.044 |
| Cn1c(=O)c2[nH]cnc2n(C)c1=O [Prestw-873] | 0.885 ± 0.19 |
| CS(=O)(=O)c1ccc(C2=C(c3ccccc3)C(=O)OC2)cc1 [Prestw-1336] | -0.298 ± 2.4 |
| Cc1[nH]c(=O)c(C#N)cc1-c1ccncc1 [Prestw-1065] | -0.373 ± 0.5 |
| CN(C)CCC=C1c2ccccc2CCc2ccccc21 [Prestw-74] | -0.482 ± 0.14 |
| N=C(N)N [Guanidine] | -0.0821 ± 0.23 |
| C[C@]12CC[C@H]3C(=CCc4cc(O)ccc43)[C@@H]1CCC2=O [Prestw-850] | -2.03 ± 0.58 |

| SMILES | pThr231Tau/total Tau ratio Z-score |
| --- | --- |
| C[C@]12C=CC(=O)C=C1CC[C@@H]1[C@@H]2[C@@H](O)C[C@@]2(C)[C@H]1CC[C@]2(O)C(=O)COP(=O)(O)O | 0.898 ± 1.6 |
| C=C[C@H]1CN2CC[C@H]1C[C@@H]2[C@@H](O)c1ccnc2ccc(OC)cc12 [Prestw-280] | 0.0845 ± 1.1 |
| Cc1c(C(N)=O)cc([N+](=O)[O-])cc1[N+](=O)[O-] [DINITOLMIDE    Therap cat:  antiprotozoal] | 0.508 ± 0.12 |
| Cc1cccc(C)c1NC(=O)C1CCCCN1C (stereo unspecified) [Prestw-1280] | 2.67 ± 1.9 |
| COc1ccc(C2C(=O)c3ccccc3C2=O)cc1 [ANISINDIONE    Therap cat: anticoagulant] | 0.998 ± 1.2 |
| Cc1ncc([N+](=O)[O-])n1CC(O)CCl (stereo unspecified) [Prestw-164] | 0.189 ± 1.4 |
| CN1C(C(=O)Nc2ccccn2)=C(O)c2sccc2S1(=O)=O [Prestw-527] | 1.83 ± 0.053 |
| CC(C(=O)O)c1ccc(C(=O)c2ccccc2)s1 (stereo unspecified) [Prestw-496] | 0.784 ± 0.62 |
| C=C1CCC(O)CC1=CC=C1CCCC2(C)C1CCC2C(C)C=CC(C)C(C)C (stereo unspecified) [ERGOCALCIFEROL    Therap cat:  Antirachitic vitamin] | 0.087 ± 0.26 |
| CC(=O)N(CC(O)CN(C(C)=O)c1c(I)c(C(=O)NCC(O)CO)c(I)c(C(=O)NCC(O)CO)c1I)c1c(I)c(C(=O)NCC(O)CO)c(I)c(C(=O)NCC(O)CO)c1I (stereo unspecified) [Prestw-848] | 0.0292 ± 2.5 |
| c1ccc(CN(CC2=NCCN2)c2ccccc2)cc1 [Prestw-258] | -0.796 ± 0.63 |
| CN(C)CC/C=C1/c2ccccc2COc2ccc(CC(=O)O)cc21 [Prestw-1307] | -0.5 ± 1.2 |
| C=CCSCC1Nc2cc(Cl)c(S(N)(=O)=O)cc2S(=O)(=O)N1 (stereo unspecified) [Prestw-721] | -0.198 ± 0.15 |
| CCN(CC)CCOCCOC(=O)C(CC)(CC)c1ccccc1 | 1.67 ± 1.5 |
| CCCOc1ccc(C(=O)OCCN(CC)CC)cc1N [Prestw-959] | 0.742 ± 0.8 |
| Nc1nc2c(ncn2CCC(CO)CO)c(=O)[nH]1 [Prestw-1488] | -1.29 ± 1.6 |
| CC(N=C(NC#N)Nc1ccncc1)C(C)(C)C (stereo unspecified) [Prestw-246] | 0.476 ± 1.8 |
| CC(=O)OCC(=O)[C@@]1(OC(C)=O)[C@@H](C)C[C@H]2[C@@H]3C[C@H](F)C4=CC(=O)C=C[C@]4(C)[C@@]3(F)[C@@H](O)C[C@@]21C [Prestw-619] | 1.24 ± 1.1 |
| CC(CN(C)C)C(C)(O)Cc1ccc(Cl)cc1 (stereo unspecified) [Prestw-1380] | -0.636 ± 0.36 |
| C[C@]1(Cn2ccnn2)[C@H](C(=O)O)N2C(=O)C[C@H]2S1(=O)=O [Prestw-1349] | -0.311 ± 1.1 |
| CC[C@@H](CO)NCCN[C@@H](CC)CO [Prestw-28] | -0.479 ± 0.7 |
| C=CCOC(Cn1ccnc1)c1ccc(Cl)cc1Cl (stereo unspecified) [Prestw-963] | -1.14 ± 0.2 |
| CC(=O)OCC(=O)[C@H]1CC[C@H]2[C@@H]3CCC4=CC(=O)CC[C@]4(C)[C@H]3CC[C@]12C | -0.568 ± 0.41 |
| CC(CN(C)C)CN1c2ccccc2Sc2ccccc21 (stereo unspecified) [Prestw-842] | -1.73 ± 0.48 |
